Assay results as given in PubChem BioAssay AID624291 (National Center for Advancing Translational Sciences (NCATS), 2012).
About 220 (0.063%) of roughly 350,000 compounds were called active. Inconclusive means that the source gave no clear call. Such entries were picked first, then a sample of the others. The call rests on the fitted dose curve; in most records, active means well fitted activation curve with a large enough effect; inconclusive means small, poorly fitted or top-dose-only effect; inactive means no such curve, though single readings can be large or run the other way. Where the call is inconclusive, the potency comes from a doubtful curve fit.

Experiment: qHTS for Activators of Integrin-Mediated Alleviation for Muscular Dystrophy; further: nearly all actives have a fitted effect of over 60% in size;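 on activation: 100% = response of the positive control SU9516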
Conditions: alpha7betagal myoblasts, beta-gal FDG fluorescence, 48 h; activation: at 38.3 µM (top of the series)
Method in brief: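 Alpha7betagal+/- myoblasts (passage 13) were plated 16-24 hr, then exposed to compounds (1:260 dilution of DMSO stock) for 48 hours at 37C. After MPER lysis, β-galactosidase reporter activity was read as FDG fluorescence (ex 480/em 540) after 30 minutes.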
Potency means the concentration at half of the fitted maximal effect.

| SMILES | Potency | activation |
| --- | --- | --- |
| CN(C)/C=C(\C#N)C(=O)N/N=C/c1ccccc1 | inconclusive: 2.82 µM [activator, full curve, poor fit] | – |
| CC1=Nc2ccccc2NC(=O)C1Sc1nnc(C)s1 (stereo unspecified) | inconclusive: 11.2 µM [activator, partial curve, poor fit] | – |
| Cc1ccccc1OCC(O)CN1CCN(CC(O)COc2ccccc2C)C(C)C1 (stereo unspecified) | inconclusive: 28.2 µM [activator, single point] | – |
| O=C(O)CN1C(=O)/C(=C\c2cc(Br)ccc2OCc2ccc(Cl)cc2)SC1=S | inconclusive: 1 µM [activator, partial curve, poor fit] | – |
| FC(F)(F)c1nnc(-c2ccccc2)nc1Oc1ccc(Cl)cc1Cl | – | inactive: 8.87% |
| Fc1ccc(CNC(=S)Nc2ccccc2F)cc1 | inconclusive: 2.51 µM [activator, single point] | – |
| CCC(=O)Nc1ccc(Cl)c(NC(=S)NC(C)=O)c1 | inconclusive: 1 µM [activator, partial curve, poor fit] | – |
| COc1ccc(C)cc1NC(=O)CN(C)S(=O)(=O)c1ccc2c(c1)CC(C)N2C(C)=O (stereo unspecified) | inconclusive: 28.2 µM [activator, single point] | – |
| CCn1c2ccccc2c2nc3cc(C(=O)O)ccc3nc21 | – | inactive: -20.4% |
| S=C(Nc1ccc(Br)cc1Cl)NC1CCN(Cc2ccccc2)CC1 | inconclusive: 5.01 µM [activator, single point] | – |
| N#C/C(=C(/O)c1ccc2c(c1)OCO2)c1nc2cc(C(F)(F)F)ccc2s1 | inconclusive: 5.01 µM [activator, single point] | – |
| O=C(CCN1CCN(C(c2ccccc2)c2ccccc2)CC1)N/N=C/c1ccc(O)cc1 | – | inactive: -0.292% |
| Cc1c(/C(O)=C2\C(=O)C(=O)N(CCCN(C)C)C2c2cccs2)cnn1-c1ccccc1 (stereo unspecified) | inconclusive: 8.91 µM [activator, partial curve, poor fit] | – |
| CCOc1ccc(C(=O)CCC(=O)Nc2ccccc2C)cc1 | inconclusive: 0.447 µM [activator, partial curve, poor fit] | – |
| COc1ccc2c3n([n+]([O-])c2c1)CCN=C3c1cc(Cl)c(N)c(Cl)c1 | – | inactive: 0.19% |
| Oc1ccc(/C=N/Nc2nc(-c3cccnc3)nc3ccccc23)c(O)c1 | – | inactive: 6.91% |
| COc1ccc(NC(=O)CSc2nc(O)cc(=O)n2-c2ccccc2OC)cc1 | – | inactive: -14.7% [at 7.66 µM] |
| COc1ccc(/C=C2\SC(=O)N(CC(=O)Nc3ccccc3O)C2=O)cc1OC | inconclusive: 5.01 µM [activator, single point] | – |
| COc1ccc(NC(=S)NC(C)Cc2cccs2)cc1 (stereo unspecified) | – | inactive: -5.61% |
| COc1cccc(C2C(C#N)=C(N)OC3=C2C(=O)CC(c2ccco2)C3)c1OCc1ccc(F)cc1 (stereo unspecified) | inconclusive: 11.2 µM [activator, single point] | – |
| O=C1OC(COc2ccc(Br)cc2)CN1c1ccccc1 (stereo unspecified) | – | inactive: 19.2% |
| O=C(O)c1ccc2c3n(nc2c1)-c1ccc(Cl)cc1CO3 | – | inactive: 20.2% |
| COC(=O)c1ccc2c(=O)n(CCN3CCOCC3)c(SCC(=O)c3ccccc3)nc2c1 | – | inactive: 34.8% |
| Cc1cc2ncc(-c3ncc(C(F)(F)F)cc3Cl)cn2n1 | – | inactive: 33.8% |

Structures shown so far that have sulfur (12):

| SMILES | Potency | activation |
| --- | --- | --- |
| CC1=Nc2ccccc2NC(=O)C1Sc1nnc(C)s1 (stereo unspecified) | inconclusive: 11.2 µM [activator, partial curve, poor fit] | – |
| O=C(O)CN1C(=O)/C(=C\c2cc(Br)ccc2OCc2ccc(Cl)cc2)SC1=S | inconclusive: 1 µM [activator, partial curve, poor fit] | – |
| Fc1ccc(CNC(=S)Nc2ccccc2F)cc1 | inconclusive: 2.51 µM [activator, single point] | – |
| CCC(=O)Nc1ccc(Cl)c(NC(=S)NC(C)=O)c1 | inconclusive: 1 µM [activator, partial curve, poor fit] | – |
| COc1ccc(C)cc1NC(=O)CN(C)S(=O)(=O)c1ccc2c(c1)CC(C)N2C(C)=O (stereo unspecified) | inconclusive: 28.2 µM [activator, single point] | – |
| S=C(Nc1ccc(Br)cc1Cl)NC1CCN(Cc2ccccc2)CC1 | inconclusive: 5.01 µM [activator, single point] | – |
| N#C/C(=C(/O)c1ccc2c(c1)OCO2)c1nc2cc(C(F)(F)F)ccc2s1 | inconclusive: 5.01 µM [activator, single point] | – |
| Cc1c(/C(O)=C2\C(=O)C(=O)N(CCCN(C)C)C2c2cccs2)cnn1-c1ccccc1 (stereo unspecified) | inconclusive: 8.91 µM [activator, partial curve, poor fit] | – |
| COc1ccc(NC(=O)CSc2nc(O)cc(=O)n2-c2ccccc2OC)cc1 | – | inactive: -14.7% [at 7.66 µM] |
| COc1ccc(/C=C2\SC(=O)N(CC(=O)Nc3ccccc3O)C2=O)cc1OC | inconclusive: 5.01 µM [activator, single point] | – |
| COc1ccc(NC(=S)NC(C)Cc2cccs2)cc1 (stereo unspecified) | – | inactive: -5.61% |
| COC(=O)c1ccc2c(=O)n(CCN3CCOCC3)c(SCC(=O)c3ccccc3)nc2c1 | – | inactive: 34.8% |

(more compounds)

| SMILES | Potency | activation |
| --- | --- | --- |
| O=C(NCc1ccco1)NC(=O)c1csc([N+](=O)[O-])c1 | inconclusive: 5.01 µM [activator, single point] | – |
| Cc1[nH]n(-c2ccccc2)c(=O)c1/C=N/NC(=O)c1cccc(F)c1 | – | inactive: -57.4% |
| C=CC(=O)N=c1sc2ccccc2n1-c1ccccc1 | – | inactive: -66.7% |
| Cc1[nH]c(=S)[nH]c(=O)c1CCCO | – | inactive: 42.9% |
| O=C(Nc1nnc(SCc2ccc(F)cc2)s1)C1CC(=O)N(Cc2ccccc2)C1 (stereo unspecified) | – | inactive: -8.28% |
| Cc1ccc(C(=O)N2CCC(C(=O)c3ccc(F)cc3)CC2)cc1 | inconclusive: 3.98 µM [activator, partial curve, poor fit] | – |
| Cc1ccc(-c2csc(N3CCN(c4cc5c(cc4Cl)nc(-c4ccncc4)n5CCOCCO)CC3)n2)cc1 | inconclusive: 1.58 µM [activator, partial curve, poor fit] | – |
| COc1ccc(Cl)cc1NC(=O)CN(C)C1CCS(=O)(=O)C1 (stereo unspecified) | inconclusive: 10 µM [activator, single point] | – |
| O=C(CN1C(=O)c2ccccc2S1(=O)=O)N1CCCCC1 | inconclusive: 5.01 µM [activator, single point] | – |
| COC(=O)c1cccc(NC(=O)c2cccs2)c1C | inconclusive: 22.4 µM [activator, partial curve, poor fit] | – |
| O=C(Nc1ccc(C(F)(F)F)cc1)c1ccc2ncsc2c1 | inconclusive: 1.78 µM [activator, partial curve, poor fit] | – |
| CC1(C(=O)Nc2ccc3c(c2)OCCO3)CC1(Cl)Cl (stereo unspecified) | inconclusive: 3.98 µM [activator, single point] | – |
| Cc1ccc(CNC(=O)CCCCCNC(=O)N2CCn3c2nc2ccccc23)cc1 | – | inactive: 27.7% |
| COc1ccc(Nc2nc(N)nc(CSc3nnc(C)s3)n2)cc1 | inconclusive: 1.58 µM [activator, partial curve, poor fit] | – |
| CCOC(=O)c1sc(NNC(=O)c2ccc(F)cc2)nc1C | inconclusive: 14.1 µM [activator, single point] | – |
| COc1ccc(N2CCN(CC(O)COc3ccc(C)c(C)c3)CC2)cc1 (stereo unspecified) | inconclusive: 3.16 µM [activator, partial curve, poor fit] | – |
| Cc1cccc(NC(=O)COC(=O)CCc2c[nH]c3ccccc23)c1C | inconclusive: 1.26 µM [activator, partial curve, poor fit] | – |
| COc1ccc(N(C)S(=O)(=O)c2cccc(C(=O)NC3=NCCS3)c2)cc1 | inconclusive: 2.82 µM [activator, partial curve, poor fit] | – |
| CC1=C(C(=O)OCc2ccccc2)C(c2ccc(Cl)cc2)NC(=O)N1C (stereo unspecified) | inconclusive: 3.98 µM [activator, partial curve, poor fit] | – |
| CN1CCC(OC(=O)Cc2ccc(Cl)cc2)CC1 | inconclusive: 28.2 µM [activator, single point] | – |
| COc1cc(/C=C2/C(=O)NN(c3ccc(F)cc3)C2=O)cc(Cl)c1O | inconclusive: 2.24 µM [activator, single point] | – |
| Cc1ccc(Cn2ncn(-c3ccccc3)c2=O)cc1 | inconclusive: 7.08 µM [activator, partial curve, poor fit] | – |
| O=C(NNC(=O)C1C2CCCCC21)c1coc(=O)c(Br)c1 (stereo unspecified) | – | inactive: -22% |
| CCCCn1c(N)c(N(CC)C(=O)c2ccc([N+](=O)[O-])c(C)c2)c(=O)[nH]c1=O | inconclusive: 8.91 µM [activator, partial curve, poor fit] | – |

| SMILES | Potency | activation |
| --- | --- | --- |
| CCOC(=O)C1=CN(CC2CCCO2)C=C(C(=O)OCC)C1c1ccccc1C(F)(F)F (stereo unspecified) | – | inactive: 0.125% |
| O=C(CSc1nncs1)NC(=O)Nc1ccc2c(c1)OCCO2 | – | inactive: 3.55% |
| COc1ccc(C(C)=O)cc1COc1cccc2c1OC(C)(C)C2 | inconclusive: 5.01 µM [activator, single point] | – |
| Cn1c(NCc2cccnc2)nc2c1c(=O)n(Cc1ccccc1F)c(=O)n2C | – | inactive: -66.9% |
| COc1ccc(C(=O)NNC(=O)c2ccc3ccccc3n2)cc1 | – | inactive: -45.2% |
| C=CCC(=O)N(CC)CC1CCCN(CCc2cccc(F)c2)C1 (stereo unspecified) | inconclusive: 28.2 µM [activator, single point] | – |
| CCCN(Cc1ccccc1)C(=S)Nc1ccc(SC(F)F)cc1 | – | inactive: 0% |
| CN(c1ncnc(N)c1[N+](=O)[O-])C1CCCCC1 | inconclusive: 10 µM [activator, partial curve, poor fit] | – |
| COc1ccc(N(C)C(=O)Nc2ccc3nsnc3c2)cc1 | inconclusive: 5.01 µM [activator, single point] | – |
| Clc1ccc(-c2noc(/C=C/c3ccccc3)n2)cc1 | inconclusive: 5.01 µM [activator, single point] | – |
| NNC(=O)CN1C(=O)Nc2ccc(Cl)cc2C1c1ccccc1 (stereo unspecified) | inconclusive: 1.41 µM [activator, partial curve, poor fit] | – |
| CCn1c2ccccc2c2cc(NC(=O)C(C)OC(=O)c3ccc(NC(=O)CC#N)cc3)ccc21 (stereo unspecified) | inconclusive: 3.55 µM [activator, single point] | – |
| O=C(COC(=O)c1cc(Cl)ccc1O)Nc1ccc2c(c1)OCCO2 | inconclusive: 1.78 µM [activator, single point] | – |
| Cc1cccc(C)c1Nc1nnc(SCc2nc3ccccc3c(=O)[nH]2)s1 | – | inactive: 8.19% |
| O=C1CCCC2=C1C(c1ccccc1)NC(=S)N2 (stereo unspecified) | – | inactive: -29.7% |
| CCCCNC(=O)CSc1ccc(S(=O)(=O)N2CCOCC2)cn1 | inconclusive: 3.16 µM [activator, full curve, poor fit] | – |
| O=C(Nc1ccccc1N1CCOCC1)c1ccc2ccccc2c1 | inconclusive: 28.2 µM [activator, single point] | – |
| COc1cc(C(=O)N/C(=C\c2cn(C)c3ccccc23)C(=O)N2CCOCC2)cc(OC)c1OC | inconclusive: 4.47 µM [activator, single point] | – |
| CN1CC(=O)N(CC(=O)N2CCC(Cc3ccccc3)CC2)C1=O | inconclusive: 3.98 µM [activator, single point] | – |
| c1ccc(CN2C3=NCCN3c3ccccc32)cc1 | – | inactive: 0% |
| O=C1OC(c2ccccc2)=C/C1=C\N1CCOCC1 | – | inactive: 15.3% |
| N#C/C(=C\c1ccccc1)C(=O)Nc1nncs1 | inconclusive: 1.26 µM [activator, partial curve, poor fit] | – |
| C(=N\NCc1ccccc1)/c1ccc2nccnc2c1 | – | inactive: -7.39% |

Shown tab-delimited: 2 of the compounds above.
SMILES	Potency	activation
Cn1c(NCc2cccnc2)nc2c1c(=O)n(Cc1ccccc1F)c(=O)n2C	–	inactive: -66.9%
COc1cc(C(=O)N/C(=C\c2cn(C)c3ccccc23)C(=O)N2CCOCC2)cc(OC)c1OC	inconclusive: 4.47 µM [activator, single point]	–
